For at least one entry, the source does not settle the construct or the ends of the probe. At least one verdict was read from the data and is not stated in words by the source. Protein sequences can lack the tags named with them.

Data set [1] deals with T1, Ty3 integrase (Ty3 IN) (Saccharomyces cerevisiae) (UniProt Q99315).
T1 sequence (looked up, limits assumed): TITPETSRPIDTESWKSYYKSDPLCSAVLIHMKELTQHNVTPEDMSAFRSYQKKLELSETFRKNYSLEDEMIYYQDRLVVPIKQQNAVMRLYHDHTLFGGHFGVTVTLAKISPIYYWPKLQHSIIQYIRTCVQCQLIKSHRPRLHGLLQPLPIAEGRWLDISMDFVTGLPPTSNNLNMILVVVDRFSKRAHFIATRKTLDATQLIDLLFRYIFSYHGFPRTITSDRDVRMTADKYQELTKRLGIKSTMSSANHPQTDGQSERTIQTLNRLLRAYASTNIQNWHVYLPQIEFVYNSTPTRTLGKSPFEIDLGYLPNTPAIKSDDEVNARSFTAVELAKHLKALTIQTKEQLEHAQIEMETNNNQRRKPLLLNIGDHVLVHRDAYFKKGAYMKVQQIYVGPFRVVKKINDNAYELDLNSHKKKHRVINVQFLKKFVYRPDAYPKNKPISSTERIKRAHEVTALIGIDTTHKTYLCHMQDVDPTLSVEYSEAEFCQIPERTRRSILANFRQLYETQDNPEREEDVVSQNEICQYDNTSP
Put plainly: SEC and native agarose gel (intasome assembly). The conditions noted are these: 10 mM MgCl2 at assembly start, 25 uM ZnCl2 dialysis, 200 mM NaCl; Sequential binding 30 min per step at RT, 1% agarose EMSA; intasome assembled in 20 mM HEPES pH 8, 730 mM NaCl, 10 mM MgCl2, 10 uM ZnCl2, 1 mM DTT; recombinant protein; protein details: N-terminal His-tag removed by 3C protease; label: Cy5 at 5' end of reactive strand (S3). For orientation: Mobility shift assays separate free from complexed probe on a gel.

In data set [2] the target is T1, Ty3 integrase (Ty3 IN) (Saccharomyces cerevisiae). Description: cryo-EM structure (4.0 A). The conditions noted are these: IN tetramer with two LTRs, joined to target N4, with TFIIIB (P3+P4); Sequential binding 30 min per step at RT, 1% agarose EMSA; intasome assembled in 20 mM HEPES pH 8, 730 mM NaCl, 10 mM MgCl2, 10 uM ZnCl2, 1 mM DTT; recombinant protein; protein details: N-terminal His-tag removed by 3C protease.

For “GAGCCCGTAATACAACA / GGTGTTGTATTACGGGCTC [Ty3 LTR terminus, Cy5]”, the binding result in data set [1] is “binds”. As to “GAGCCCGTAATACAACA / GGTGTTGTATTACGGGCTC [Ty3 LTR terminus, unlabelled]”, in data set [2], the binding result is listed as “binds”.

The values above are taken from article PMC8632968.
